Results reported in patent US20100041694A1, “AGRICULTURAL COMPOSITION FOR CONTROLLING OR PREVENTING PLANT DISEASES CAUSED BY PLANT PATHOGENIC MICROBES” (Sumitomo Chemical Company, Limited, priority 2007, published 2010).
Some results were stated once for a whole list of compounds, not compound by compound.

Tests used:
Assay type in all cases: in vivo
Fusarium oxysporum = assay: Preventing infection by tomato wilt by soil treatment (irrigation); settings: tomato (Patio) in contaminated soil, 10 mg compound per pot by soil irrigation, 1 month
Gibberella fujikuroi = assay: Rice bakanae disease, seed treatment; settings: contaminated unhulled rice, seed treatment 200 g compound per 100 kg seeds, 1 month
Gaeumannomyces graminis = assay: Malt damping off, seed treatment; settings: contaminated malt seeds, seed treatment 200 g compound per 100 kg seeds, 1 month
[1] = tested on: Verticillium albo-atrum, V. dahliae, V. nigrescens; assay: Potato blue stem, soil irrigation treatment; settings: potato (Danshaku) in contaminated soil, 10 mg compound per pot by soil irrigation, 2 months

Compound | blotches in treated plants (Fusarium oxysporum) | growth of treated plants (Fusarium oxysporum) | growth of treated plants (Gibberella fujikuroi) | growth of treated plants (Gaeumannomyces graminis) | blotches in treated plants [1] | growth of treated plants [1]
O=C(NCc1cccc(Oc2ccccc2)c1)c1ccc2ncccc2c1 [Compound 5] | no blotches are found | favorably grow at a level equivalent to that of plants that grow have in noncontaminated soil | favorably grow at a level equivalent to that of plants that have grown from noncontaminated unhulled rice | favorably grow at a level equivalent to that of plants that grow from noncontaminated seeds | no blotches are found | favorably grow at a level equivalent to that of plants that grow in noncontaminated soil
O=C(NCc1cccc(OCc2ccccc2)c1)c1ccc2ncccc2c1 [Compound 6] | no blotches are found | favorably grow at a level equivalent to that of plants that grow have in noncontaminated soil | favorably grow at a level equivalent to that of plants that have grown from noncontaminated unhulled rice | favorably grow at a level equivalent to that of plants that grow from noncontaminated seeds | no blotches are found | favorably grow at a level equivalent to that of plants that grow in noncontaminated soil
O=C(NCc1cccc(O)c1)c1ccc2ncccc2c1 [Compound 7] | no blotches are found | favorably grow at a level equivalent to that of plants that grow have in noncontaminated soil | favorably grow at a level equivalent to that of plants that have grown from noncontaminated unhulled rice | favorably grow at a level equivalent to that of plants that grow from noncontaminated seeds | no blotches are found | favorably grow at a level equivalent to that of plants that grow in noncontaminated soil
O=C(NCc1cccc(Nc2ccccc2)c1)c1ccc2ncccc2c1 [Compound 19] | no blotches are found | favorably grow at a level equivalent to that of plants that grow have in noncontaminated soil | favorably grow at a level equivalent to that of plants that have grown from noncontaminated unhulled rice | favorably grow at a level equivalent to that of plants that grow from noncontaminated seeds | no blotches are found | favorably grow at a level equivalent to that of plants that grow in noncontaminated soil
O=C(Cc1cccc(Oc2ccccc2)c1)Nc1ccc2ncccc2c1 [Compound 28] | no blotches are found | favorably grow at a level equivalent to that of plants that grow have in noncontaminated soil | favorably grow at a level equivalent to that of plants that have grown from noncontaminated unhulled rice | favorably grow at a level equivalent to that of plants that grow from noncontaminated seeds | no blotches are found | favorably grow at a level equivalent to that of plants that grow in noncontaminated soil
O=C(NCc1ccc(OCc2ccccc2)cc1)c1ccc2ncsc2c1 [Compound 31] | no blotches are found | favorably grow at a level equivalent to that of plants that grow have in noncontaminated soil | favorably grow at a level equivalent to that of plants that have grown from noncontaminated unhulled rice | favorably grow at a level equivalent to that of plants that grow from noncontaminated seeds | no blotches are found | favorably grow at a level equivalent to that of plants that grow in noncontaminated soil
